These are yes or no findings as the source states them, for the method shown. Binding seen in cells or lysates may run through a third protein. Some entries that bind do so weakly or less than the wild type.
Molecular target: Orai1-CFP (UniProt Q96D31)
Assay: FRET or BRET; E-FRET between C-terminally tagged Orai1-CFP and Orai1-YFP co-expressed with mCherry-STIM1 (WT or mutants) in HEK-S1S2dKO cells, before and after 2.5 µM ionomycin; values normalised to t0

By UniProt entry, the sequences of proteins in these tests, tags left out.
UniProt Q96D31: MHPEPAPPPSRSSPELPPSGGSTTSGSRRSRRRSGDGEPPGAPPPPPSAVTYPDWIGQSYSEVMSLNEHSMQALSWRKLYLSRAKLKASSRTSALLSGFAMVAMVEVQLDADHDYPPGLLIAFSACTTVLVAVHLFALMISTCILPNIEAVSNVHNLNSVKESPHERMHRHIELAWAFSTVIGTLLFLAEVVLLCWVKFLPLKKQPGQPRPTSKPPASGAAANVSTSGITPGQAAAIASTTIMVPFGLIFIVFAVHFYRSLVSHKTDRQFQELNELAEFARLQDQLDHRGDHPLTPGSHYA

In the case of Orai1-YFP (from UniProt Q96D31 1-301), the binding was “binds”.

Source: paper PMC10616141
